Test results: publication PMC3858360
No constants are given. Whether binding was seen depends on the method and setting.

Protein sequences, listed by entry. Tags and fused reporters are not part of them. Residues count along the entry.
UniProt Q9ULV0, residues 1462-1848: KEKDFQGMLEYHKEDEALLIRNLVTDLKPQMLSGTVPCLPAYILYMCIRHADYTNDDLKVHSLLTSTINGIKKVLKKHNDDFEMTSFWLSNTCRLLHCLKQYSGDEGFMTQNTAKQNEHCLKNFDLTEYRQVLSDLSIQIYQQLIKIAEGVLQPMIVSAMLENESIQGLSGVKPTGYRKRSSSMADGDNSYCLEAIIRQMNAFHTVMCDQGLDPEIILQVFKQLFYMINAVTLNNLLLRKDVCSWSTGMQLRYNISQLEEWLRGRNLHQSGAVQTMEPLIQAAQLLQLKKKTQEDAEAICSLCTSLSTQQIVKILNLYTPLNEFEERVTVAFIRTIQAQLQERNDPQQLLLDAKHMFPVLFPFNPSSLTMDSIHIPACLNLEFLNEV
UniProt Q9Y4I1, residues 1467-1855: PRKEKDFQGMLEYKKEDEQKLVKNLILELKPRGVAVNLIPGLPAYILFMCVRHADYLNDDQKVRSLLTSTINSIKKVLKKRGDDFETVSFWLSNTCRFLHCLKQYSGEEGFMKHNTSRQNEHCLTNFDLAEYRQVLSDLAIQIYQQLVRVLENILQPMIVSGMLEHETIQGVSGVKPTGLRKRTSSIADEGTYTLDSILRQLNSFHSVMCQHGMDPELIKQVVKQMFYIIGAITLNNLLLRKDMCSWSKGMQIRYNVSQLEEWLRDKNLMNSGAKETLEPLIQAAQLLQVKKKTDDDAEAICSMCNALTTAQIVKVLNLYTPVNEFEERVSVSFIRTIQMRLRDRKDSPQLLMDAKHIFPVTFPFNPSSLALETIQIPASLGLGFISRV
UniProt Q9NQX4, residues 1355-1742: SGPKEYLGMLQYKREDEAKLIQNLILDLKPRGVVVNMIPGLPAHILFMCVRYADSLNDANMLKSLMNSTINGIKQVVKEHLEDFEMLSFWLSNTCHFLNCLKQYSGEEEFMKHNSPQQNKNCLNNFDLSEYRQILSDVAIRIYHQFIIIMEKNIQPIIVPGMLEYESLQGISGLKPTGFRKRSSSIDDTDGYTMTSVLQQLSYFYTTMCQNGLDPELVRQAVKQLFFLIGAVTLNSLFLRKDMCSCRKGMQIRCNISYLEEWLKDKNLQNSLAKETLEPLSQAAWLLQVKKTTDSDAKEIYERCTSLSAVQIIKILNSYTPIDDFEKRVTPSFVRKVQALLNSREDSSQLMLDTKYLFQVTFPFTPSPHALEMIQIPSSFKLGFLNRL

What was measured:
Assay in all cases: SAXS; 1.1 to 14 mg/ml protein in 50 mM Tris pH 7.0 (pH 7.5 for Myo5b and Myo5c GD), 140 mM NaCl, 2 mM DTT, 293 K; both purified
[1] = target: human Myo5b globular domain, Myo5b (1462–1849) (human) (UniProt Q9ULV0)
[2] = target: human Myo5a globular domain, Myo5a (1467–1855) (human) (UniProt Q9Y4I1)
[3] = target: human Myo5c globular domain, Myo5c (1355–1742) (human) (UniProt Q9NQX4)

human Myo5b globular domain, Myo5b (1462–1849) (from UniProt Q9ULV0 1462-1848) (domain or fragment)
binding [1]: no binding (tested: 1.1 to 14 mg/ml)

human Myo5a globular domain, Myo5a (1467–1855) (from UniProt Q9Y4I1 1467-1855) (domain or fragment)
binding [2]: no binding (tested: 1.1 to 14 mg/ml)

human Myo5c globular domain, Myo5c (1355–1742) (from UniProt Q9NQX4 1355-1742) (domain or fragment)
binding [3]: no binding (tested: 1.1 to 14 mg/ml)
